Measured data: PubChem BioAssay AID504784 (Drosophila RNAi Screening Center, 2011)
Screen: 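Search for regulators of lipid droplet storage in oleate-fed fly cells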 (primary screen). Cell system: Drosophila Kc167 embryonic cells. Reagents: long dsRNA against Drosophila genes, about 250 ng dsRNA per well. Time to read-out: 4 days. Treatment: cells fed 400 µM oleic acid bound to BSA. Measurement: 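Cells imaged and segmented; ratio of lipid droplet area to nuclear area, log-transformed, then normalised as a B-score over the screen; higher means more stored lipid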. Reading the numbers: droplet/nuclear area B-score: higher = more stored lipid (overstorage).
In all, the deposit lists about 17,000 reagents; shown is a random part of those with a known target gene and a result. 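Each column is one replicate's B-score; the combined score over replicates was not deposited, so single values may mislead.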 The numbers tell different reagents against one gene apart. A plus sign joins genes that one reagent is predicted to hit. No sequences are given here.

droplet/nuclear area B-score, replicate 1 | droplet/nuclear area B-score, replicate 2 | droplet/nuclear area B-score, replicate 3 | Gene | reagent no.
-0.482 | -0.546 | – | lov (jim lovell) | 1
0.916 | -0.513 | 0.381 | lov (jim lovell) | 2
1.05 | 1.43 | – | CG7691 | 1
1.87 | 1.61 | – | CG9932 | 1
0.616 | 0.472 | – | Srp54k (Signal recognition particle 54k) | 1
0.972 | -1.72 | – | CG4375 | 1
0.624 | 0.522 | – | CG34286 | 1
0.716 | -0.418 | – | CG14154 | 1
-1.92 | -0.186 | – | Dsp1 (Dorsal switch protein 1) | 1
-0.427 | -3.89 | – | Dsp1 (Dorsal switch protein 1) | 2
-0.0383 | 0.000552 | – | Btk (Bruton tyrosine kinase) | 1
-0.951 | -0.24 | – | Btk (Bruton tyrosine kinase) | 2
-0.104 | -1.35 | – | Btk (Bruton tyrosine kinase) | 3
-1.48 | -0.00339 | – | CG11155 | 1
-0.00272 | 0.433 | – | CG10064 | 1
0.632 | 5.21 | – | spz (spatzle) | 1
0.926 | -1.03 | – | mRpS22 (mitochondrial ribosomal protein S22) | 1
2.24 | 2.86 | – | fau | 1
0.165 | 2.25 | – | fau | 2
-0.112 | -3.36 | – | fau | 3
0.117 | -0.83 | – | fau | 4
0.0372 | -0.705 | 1.75 | fau | 5
-0.807 | 1.17 | – | fau | 6
0.4 | 1.66 | – | Fmo-1 (Flavin-containing monooxygenase 1) | 1
0.125 | 1.45 | – | CG14262 | 1
-0.795 | 0.114 | – | ova (ovaries absent) | 1
-0.359 | -0.176 | – | CG33278 | 1
-1.4 | 1.22 | – | fsd (fates-shifted) | 1
-1.61 | -1.02 | – | CG31933 | 1
2.73 | -0.674 | – | pen-2 (presenilin enhancer) | 1
-0.0448 | -0.0246 | – | CG42525 | 1
2.09 | 0.759 | – | beat-Vb (beaten path Vb) | 1
0.00721 | -0.279 | – | beat-Vb (beaten path Vb) | 2
0.0473 | -0.452 | – | beat-Vb (beaten path Vb) | 3
0.365 | -0.0569 | – | kuk (kugelkern) | 1
1.58 | 1.48 | -0.848 | HipHop (HP1-HOAP-interacting protein) | 1
-0.649 | 1.39 | – | CG44014 | 1
1.32 | 1.28 | – | CR31824 (pseudo) | 1
-0.412 | 1.07 | – | gNacalpha | 1
0.33 | -0.555 | 1.06 | MFS14 (Major Facilitator Superfamily Transporter 14) | 1
-0.0218 | -0.00671 | – | Ugt35B1 (UDP-glycosyltransferase family 35 member B1) | 1
2.16 | 1.31 | – | CG6553 | 1
-0.0739 | 1.02 | – | CG5913 | 1
-2.02 | 0.683 | – | fusl (fuseless) | 1
-0.419 | -3.17 | – | Fcp1 (TFIIF-interacting CTD phosphatase) | 1
1.82 | -0.555 | -0.0991 | Pkcdelta (Protein kinase C delta) | 1
1.38 | -0.43 | 0.136 | Pkcdelta (Protein kinase C delta) | 2

The list goes on; the last 7 above are carried over.
droplet/nuclear area B-score, replicate 1 | droplet/nuclear area B-score, replicate 2 | droplet/nuclear area B-score, replicate 3 | Gene | reagent no.
-0.0218 | -0.00671 | – | Ugt35B1 (UDP-glycosyltransferase family 35 member B1) | 1
2.16 | 1.31 | – | CG6553 | 1
-0.0739 | 1.02 | – | CG5913 | 1
-2.02 | 0.683 | – | fusl (fuseless) | 1
-0.419 | -3.17 | – | Fcp1 (TFIIF-interacting CTD phosphatase) | 1
1.82 | -0.555 | -0.0991 | Pkcdelta (Protein kinase C delta) | 1
1.38 | -0.43 | 0.136 | Pkcdelta (Protein kinase C delta) | 2
-0.578 | -1.25 | – | CG8003 | 1
1.07 | 1.56 | – | Best4 (Bestrophin 4) | 1
-1.12 | 0.245 | 1.74 | CG14246 | 1
0.232 | 3.21 | – | Cad88C (Cadherin 88C) | 1
-0.198 | -0.303 | – | CG31556 (retired record) | 1
1.42 | 0.316 | – | CG31556 (retired record) | 2
0.664 | -1.04 | – | p130CAS | 1
-1.4 | 0.41 | – | p130CAS | 2
0.599 | -3.08 | – | ND-B14.5A (NADH dehydrogenase (ubiquinone) B14.5 A subunit) | 1
-0.134 | 2.71 | – | Idh (Isocitrate dehydrogenase) | 1
1.76 | 1.09 | – | PDCD-5 (Programmed Cell Death 5) | 1
-1.37 | -1.56 | – | gpp (grappa) | 1
1.51 | 0.889 | – | gpp (grappa) | 2
-0.294 | 0.753 | – | CG34125 | 1
-1.63 | 1.14 | -0.0955 | xit (xiantuan) | 1
0.176 | -0.417 | – | ACXB (Adenylyl cyclase X B) | 1
-1.8 | 0.208 | – | CG1172 | 1
-0.359 | -0.56 | – | CG1172 | 2
1.52 | 0.3 | – | Sol1 | 1
0.42 | 0.988 | – | Sol1 | 2
-0.502 | 0.148 | – | Sol1 | 3
1.22 | 0.0678 | – | Non2 (Novel nucleolar protein 2) | 1
1.6 | -0.216 | 0.526 | Lint-1 (l(3)mbt interacting protein 1) | 1
0.421 | 2.66 | – | Taf9 (TBP-associated factor 9) | 1
0.715 | -1.13 | – | BomS2 (Bomanin Short 2) | 1
0.828 | -0.552 | – | side-IV (sidestep IV) | 1
-0.319 | 1.1 | – | tty (tweety) | 1
-0.494 | 0.412 | – | Gld (Glucose dehydrogenase) | 1
0.61 | 0.0372 | – | Cph (Chronophage) | 1
0.735 | -0.44 | – | Tbce (Tubulin-binding cofactor E) | 1
-1.3 | 2.28 | 0 | CG7730 | 1
-0.501 | 2.02 | – | CG1542 | 1
3.05 | 1.32 | – | CG3358 | 1
0.209 | -1.84 | – | CG6184 | 1
1.45 | -0.906 | – | tinc (tincar) | 1
0.0242 | -0.421 | – | tinc (tincar) | 2
0.525 | -0.0345 | – | tinc (tincar) | 3
-0.0515 | 0.149 | – | tinc (tincar) | 4
0.723 | 0.478 | – | CG32237 | 1
-1.29 | -1.42 | – | CG32237 | 2
0.12 | -1.51 | – | CG13023 | 1
0.656 | 0.314 | – | CG14456 | 1
-0.623 | -1.75 | – | CG8701 | 1
0.103 | -0.0848 | – | Obp56b (Odorant-binding protein 56b) | 1
0.275 | -0.361 | – | CG34176 | 1
0.986 | -0.584 | 0.421 | Acat1 (Acetyl-CoA acetyltransferase 1) | 1
0.00351 | 0.755 | – | Octbeta3R (Octopamine beta3 receptor) | 1
1.21 | -0.201 | – | Octbeta3R (Octopamine beta3 receptor) | 2
0.447 | 0.193 | – | Octbeta3R (Octopamine beta3 receptor) | 3
6.62 | 0.826 | – | Octbeta3R (Octopamine beta3 receptor) | 4
-0.996 | -0.97 | – | Octbeta3R (Octopamine beta3 receptor) | 5
0.461 | -1.24 | – | Fas2 (Fasciclin 2) | 1
-0.572 | 1.23 | – | Fas2 (Fasciclin 2) | 2
-0.796 | – | – | Fas2 (Fasciclin 2) | 3
1.62 | -1.39 | – | CG43367 + CG32252 (retired record) | 1
0.00856 | 0.0212 | – | Gem3 (Gemin 3) | 1
-0.0479 | 2.23 | – | CG15561 | 1
-0.321 | 2.78 | -0.849 | CG4558 | 1
